Compound in the assay: Nc1nc2c(ncn2[C@@H]2O[C@H](COP(=O)(O)OP(=O)(O)OP(=O)(O)O)[C@@H](O)[C@H]2O)c(=O)[nH]1 [guanosine triphosphate]
As to the kind of experiment: NP40-soluble protein abundance relative to vehicle (solubility fold change) (ratio); higher = more soluble protein in presence of GTP. As to the method:
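Solubility proteome profiling in Jurkat crude lysate. Lysate was treated with Mg-GTP (0.1-10 mM) for 10 min at room temperature and 3 min at 37 °C, then solubilised with 0.8% NP40 and benzonase, followed by ultracentrifugation. Proteins were quantified by TMT10 LC-MS/MS; the value is the NP40-soluble abundance relative to the NP40-processed vehicle, from 3 independent experiments.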

Protein sequences, listed by entry. Tags and fused reporters are not part of them. Lines headed by an entry give the natural chain unless they say otherwise; changes in a name come on top.
UniProt Q99848: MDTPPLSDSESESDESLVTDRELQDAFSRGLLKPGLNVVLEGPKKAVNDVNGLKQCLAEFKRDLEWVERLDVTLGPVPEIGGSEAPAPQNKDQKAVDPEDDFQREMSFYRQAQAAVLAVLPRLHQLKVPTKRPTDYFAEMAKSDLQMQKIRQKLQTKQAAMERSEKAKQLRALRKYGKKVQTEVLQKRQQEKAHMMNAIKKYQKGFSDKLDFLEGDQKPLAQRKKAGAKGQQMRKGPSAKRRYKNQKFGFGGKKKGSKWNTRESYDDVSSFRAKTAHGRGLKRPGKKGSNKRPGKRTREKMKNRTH
UniProt P53041: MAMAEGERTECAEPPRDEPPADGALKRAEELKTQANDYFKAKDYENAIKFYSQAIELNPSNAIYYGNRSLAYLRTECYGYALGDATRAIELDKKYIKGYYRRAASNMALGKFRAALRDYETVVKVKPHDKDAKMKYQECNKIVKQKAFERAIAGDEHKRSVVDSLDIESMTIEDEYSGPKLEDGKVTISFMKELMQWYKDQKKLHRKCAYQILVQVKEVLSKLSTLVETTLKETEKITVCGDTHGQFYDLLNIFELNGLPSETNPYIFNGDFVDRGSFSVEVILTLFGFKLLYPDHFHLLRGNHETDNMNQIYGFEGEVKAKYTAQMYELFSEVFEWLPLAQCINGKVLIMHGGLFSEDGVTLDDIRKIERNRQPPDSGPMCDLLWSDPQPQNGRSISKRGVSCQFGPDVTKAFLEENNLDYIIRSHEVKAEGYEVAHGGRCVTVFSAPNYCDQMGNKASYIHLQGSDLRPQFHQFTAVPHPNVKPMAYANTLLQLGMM
UniProt Q14498: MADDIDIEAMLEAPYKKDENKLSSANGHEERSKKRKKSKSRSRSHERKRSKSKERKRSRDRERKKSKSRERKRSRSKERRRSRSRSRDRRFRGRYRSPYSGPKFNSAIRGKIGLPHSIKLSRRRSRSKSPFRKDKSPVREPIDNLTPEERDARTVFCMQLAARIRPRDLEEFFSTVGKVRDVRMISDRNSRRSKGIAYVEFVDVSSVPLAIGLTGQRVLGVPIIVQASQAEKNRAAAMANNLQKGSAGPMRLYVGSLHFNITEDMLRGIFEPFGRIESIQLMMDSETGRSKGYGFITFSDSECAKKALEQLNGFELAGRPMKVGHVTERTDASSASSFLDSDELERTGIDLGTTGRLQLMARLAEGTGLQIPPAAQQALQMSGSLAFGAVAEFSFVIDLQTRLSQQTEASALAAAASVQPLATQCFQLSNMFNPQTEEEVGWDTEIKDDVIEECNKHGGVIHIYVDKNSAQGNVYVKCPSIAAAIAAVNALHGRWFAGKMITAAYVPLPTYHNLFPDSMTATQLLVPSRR
UniProt Q9BQF6: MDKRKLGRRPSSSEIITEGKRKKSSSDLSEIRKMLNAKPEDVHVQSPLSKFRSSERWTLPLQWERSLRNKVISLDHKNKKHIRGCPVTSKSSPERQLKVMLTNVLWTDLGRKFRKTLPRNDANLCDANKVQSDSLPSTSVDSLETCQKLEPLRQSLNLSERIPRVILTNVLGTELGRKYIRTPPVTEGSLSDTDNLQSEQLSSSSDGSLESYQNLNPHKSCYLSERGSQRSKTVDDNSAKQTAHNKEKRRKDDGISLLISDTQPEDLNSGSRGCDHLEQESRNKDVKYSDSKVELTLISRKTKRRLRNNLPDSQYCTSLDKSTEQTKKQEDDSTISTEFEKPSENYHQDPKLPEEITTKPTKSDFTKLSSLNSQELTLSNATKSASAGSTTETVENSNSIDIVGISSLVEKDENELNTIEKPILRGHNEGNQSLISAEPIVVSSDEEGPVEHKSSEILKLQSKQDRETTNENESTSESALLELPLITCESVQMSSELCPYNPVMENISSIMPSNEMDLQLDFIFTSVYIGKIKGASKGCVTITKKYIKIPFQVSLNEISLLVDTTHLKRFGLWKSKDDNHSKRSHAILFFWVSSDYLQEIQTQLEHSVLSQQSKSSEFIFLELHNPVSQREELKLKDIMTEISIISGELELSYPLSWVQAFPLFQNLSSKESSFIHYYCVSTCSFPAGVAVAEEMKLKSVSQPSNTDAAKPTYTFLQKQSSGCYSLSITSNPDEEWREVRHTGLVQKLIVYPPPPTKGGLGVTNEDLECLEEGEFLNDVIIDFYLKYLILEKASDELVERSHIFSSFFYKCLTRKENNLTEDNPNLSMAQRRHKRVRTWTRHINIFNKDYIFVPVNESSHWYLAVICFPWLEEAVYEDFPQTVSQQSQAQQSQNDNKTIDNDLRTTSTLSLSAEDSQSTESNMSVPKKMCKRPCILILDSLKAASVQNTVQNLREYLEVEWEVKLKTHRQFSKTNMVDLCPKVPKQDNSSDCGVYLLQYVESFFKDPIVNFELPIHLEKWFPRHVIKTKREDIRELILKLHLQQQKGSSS
UniProt Q6NW29: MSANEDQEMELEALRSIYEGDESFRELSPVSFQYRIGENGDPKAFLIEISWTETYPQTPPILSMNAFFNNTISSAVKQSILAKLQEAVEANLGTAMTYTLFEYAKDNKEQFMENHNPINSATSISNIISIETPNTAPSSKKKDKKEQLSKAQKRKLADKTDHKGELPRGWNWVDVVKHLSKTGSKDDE

± gives the standard deviation of the averaged measurements. Some of the results follow.

Consider “H7C2Q8 and related entries (UniProt Q99848)”, for which the NP40-soluble protein abundance (concentration: 0.1mM) came to 1.09 ± 0.13; the NP40-soluble protein abundance (concentration: 0.5mM) was 1.1 ± 0.14; the NP40-soluble protein abundance (concentration: 1mM) stood at 1.25 ± 0.17; the NP40-soluble protein abundance (concentration: 2mM) is 1.17 ± 0.12; the NP40-soluble protein abundance (concentration: 4mM) came out at 1.2 ± 0.2; the NP40-soluble protein abundance (concentration: 6mM) stood at 1.16 ± 0.15. The NP40-soluble protein abundance worked out at 1.14 ± 0.16 (concentration: 8mM) and 1.42 ± 0.31 (concentration: 10mM).

As for “H0YDU8 and related entries (UniProt P53041)”, the NP40-soluble protein abundance is, setting by setting: (concentration: 0.1mM) 0.974 ± 0.017; (concentration: 0.5mM) 0.986 ± 0.016; (concentration: 1mM) 0.932 ± 0.018; (concentration: 2mM) 0.918 ± 0.023; (concentration: 4mM) 0.905 ± 0.036; (concentration: 6mM) 0.897 ± 0.023. The NP40-soluble protein abundance by setting is: (concentration: 8mM) 0.888 ± 0.056; (concentration: 10mM) 0.855 ± 0.051.

“H0Y4X3 and related entries (UniProt Q14498)”: the NP40-soluble protein abundance is, setting by setting: (concentration: 0.1mM) 1.02 ± 0.049; (concentration: 0.5mM) 1.2 ± 0.029; (concentration: 1mM) 1.28 ± 0.046; (concentration: 2mM) 1.36 ± 0.076; (concentration: 4mM) 1.44 ± 0.13; (concentration: 6mM) 1.48 ± 0.11. The NP40-soluble protein abundance reads like this: (concentration: 8mM) 1.56 ± 0.15; (concentration: 10mM) 1.6 ± 0.14.

In the case of “J3QT09 and related entries (UniProt Q9BQF6)”, the NP40-soluble protein abundance (concentration: 0.1mM) came to 1.01 ± 0.16; the NP40-soluble protein abundance (concentration: 0.5mM) was found to be 1.01 ± 0.15; the NP40-soluble protein abundance (concentration: 1mM) was 0.959 ± 0.13; the NP40-soluble protein abundance (concentration: 2mM) was 0.943 ± 0.068; the NP40-soluble protein abundance (concentration: 4mM) is 1.02 ± 0.21; the NP40-soluble protein abundance (concentration: 6mM) was 0.986 ± 0.11. In addition, the NP40-soluble protein abundance (concentration: 8mM) turned out to be 0.959 ± 0.13 and the NP40-soluble protein abundance (concentration: 10mM) turned out to be 0.943 ± 0.12.

With “K4DI92 and related entries (UniProt Q6NW29)”, the NP40-soluble protein abundance came out at 0.97 ± 0.14 (concentration: 0.1mM); 0.884 ± 0.26 (concentration: 0.5mM); 0.915 ± 0.2 (concentration: 1mM); 0.996 ± 0.15 (concentration: 2mM); 0.957 ± 0.14 (concentration: 4mM); 0.933 ± 0.089 (concentration: 6mM). Moreover, the NP40-soluble protein abundance runs as follows: (concentration: 8mM) 0.99 ± 0.099; (concentration: 10mM) 0.984 ± 0.2.
